Measured values: patent US20090215782A1, “Use of PDE-5 Inhibitors for Endothelial Repair of Tissues Impaired by Trauma or Disease” (priority 2005, published 2009)
At least one structure is not confirmed: it was looked up by name or label, or the drawing left a doubt.

Tested on: circulating endothelial progenitor cells (EPCs)
Assay: Concentration of circulating EPCs (CD34/AC133 double positive) in peripheral blood by flow cytometry after oral Vardenafil 20 mg, placebo crossover
Format: in vivo, human
Settings: healthy men, two hours after administration of Vardenafil 20 mg
Method: 10 healthy men without cardiovascular risk factors were selected for the study. The ages of the 10 men ranged from 21 to 25 years. Blood samples taken for the purposes of the study were evaluated by flow cytometry, as previously described (Scheubel R. J., Zorn H., Silber R. E., Kuss O., Morawietz H., Holtz J., Simm A. Age-dependent depression in circulating endothelial cell progenitor cells in patients undergoing coronary artery bypass grafting. J Am Coll Cardiol. 42, 2073-2080,2003).
Control samples from each subject were examined to validate the study. The samples were obtained in triplicate, on different days and at different hours of the day and examined. […]
Analysis was performed on a sample of 150 μl of peripheral blood extracted from each subject. […] After incubation, the cells were lysed in NH4Cl lysis buffer, washed twice with PBS 1% FCS and then analysed by flow cytometry.
With reference to FIG. 1, forward and side scatter gates were set to include all viable mononuclear cells; into this gate 500,000 events were acquired. […] Cells were scored using a FACSCalibur analyzer (Becton Dickinson Immunocytometry Systems, San Jose, Calif., USA) and data processing using the CellQuest software programmes (Becton Dickinson Immunocytometry Systems).
The percentage of EPCs, in each subject, was calculated by dividing the number of double positive events by the number of total events. […]

SMILES: CCCc1nc(C)c2c(=O)[nH]c(-c3cc(S(=O)(=O)N4CCN(CC)CC4)ccc3OCC)nn12 [Vardenafil]
- change in concentration of EPCs with respect to baseline: no changes
